Data as given in US20110182904A1.
No constants are given. Whether binding was seen depends on the method and setting.

Columns and labels:
Assay in all cases: SPR (Biacore); BMP/GDF amine-coupled to CM5, mAb flowed at 20 ug/ml
[1] = molecular target: BMP3
[2] = molecular target: BMP6
[3] = molecular target: BMP8b
[4] = molecular target: GDF5
[5] = molecular target: GDF7
[6] = molecular target: BMP5
[7] = molecular target: BMP7

Measured: binding

B1: 12E3 human monoclonal antibody (antibody, V domains shown)
VH: QVQLVESGGGVVQPGRSLRLSCAASGFTFSSYGMHWVRQAPGKGLEWVAVIWDDGRKKYYADSVKGRFTISRDNSKNTLYLQMNSLRAEDTAVYYCAREPAGVWGMDVWGQGTTVTVSS
VL: DIQMTQSPSSLSASVGDRVTITCRASQGISSWLAWYQQKPEKAPKSLIYAASSLQSGVPSRFSGSGSGTDFTLTISSLQPEDFATYYCQQYNSYPLTFGGGTKVEIK
no binding (tested: 20 ug/ml): [1] | [2] | [3] | [4] | [5]

B2: 10F6 human monoclonal antibody (antibody, V domains shown)
VH: QVQLVESGGGVVQPGRSLRLSCAASGFTFRSYGIHWVRQAPGKGLEWVAVIWYDGSHKYYADSVKGRFTISRDNSKNTLDLQMNSLRAEDTAVYYCVRGSSNWYFDYWGQGTLVTVSS
VL: DIQMTQSPSSLSASVGDRVTITCRASQGISSWLAWYQQKPEKAPKSLIYAASSLQSGVPSRFSGSGSGTDFTLTISSLQPEDFATYYCQQYNSYPLTFGGGTKVEIK
no binding (tested: 20 ug/ml): [1] | [4] | [5]

B3: 7D6 human monoclonal antibody (antibody, V domains shown)
VH: QVQLVQSGAEVKKPGSSVKVSCKASGGTFSSYAISWVRQAPGQGLEWMGRIIPILGIVNYAQKFQGRVTITADKSTSTAYMELSSLRSEDTAVYYCARGKDIWGQGTMVTVSS
VL: EIVLTQSPGTLSLSPGERATLSCRASQIVISTYLAWYQQKPGQAPRLLIYGASSRATGIPDRFSGSGSGTDFTLTISRLEPEDFAVYYCQQYGSSPCTFGQGTKLEIK
no binding (tested: 20 ug/ml): [1] | [6] | [2] | [7] | [3]

B4: 33F7 human monoclonal antibody (antibody, V domains shown)
VH: QVQLVQSGAEVKKPGSSVKVSCKASGGTFSSYAINWVRQAPGQGLEWMGRLIPILGIANYAQKFQGRVTITADKSTSTAYMELSSLRSEDTAVYYCARGKDIWGQGTMVTVSS
VL: EIVLTQSPGTLSLSPGERVTLSCRASQSVSSNYLAWYQQKPGQAPRLLIKGASSRATGIPDRFSGSGSGTDFTLTISRLEPEDFAVYYCQQYGSSPCTFGQGTKLEIK
no binding (tested: 20 ug/ml): [1] | [6] | [2] | [3] | [4] | [5]

B5: 16B7 human monoclonal antibody (antibody, V domains shown)
VH: QVQLVESGGGVVQPGRSLRLSCAASGFTFSNYGIHWVRQAPGKGLEWVAVIWYDGSHKYYADSMKGRFTISRDNSKNTLDLQMNSLRAEDTAVYYCARGSSSWYFDLWGRGTLVTVSS
VL: DIQMTQSPSSLSASVGDRVTITCRASQGISSWLAWYQQKPEKAPKSLIYAASSLQSGVPSRFSGSGSGTDFTLTISSLQPEDFATYYCQQYNSYPLTFGGGTKVEIK
no binding (tested: 20 ug/ml): [1] | [3]
